Results: PubChem BioAssay AID504834 (National Center for Advancing Translational Sciences (NCATS), 2011)
The campaign covered roughly 320,000 compounds. About 22,000 (6.9%) were called active. The shares of active, inactive and inconclusive entries below differ from those in the screen. The call rests on the fitted dose curve; in most records, active means well fitted inhibition curve with a large enough effect; inconclusive means small, poorly fitted or top-dose-only effect, or another doubt; inactive means no such curve, though single readings can be large or run the other way. Where the call is inconclusive, the potency comes from a doubtful curve fit.

test: Primary qHTS for delayed death inhibitors of the malarial parasite plastid, 96 hour incubation; details: P. falciparum luciferase reporter growth; series mostly up to 28.7 µM
Outline: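 Luminescence readout: decreased luciferase signal marks inhibited growth of reporter-expressing P. falciparum in infected red cells (2% hematocrit, 0.05% parasitemia final), exposed to compound two generations (96 h, 37 C, 5% CO2).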
Potency means the concentration at half of the fitted maximal effect.

Row | SMILES | Potency
1 | CC(O)CNCCOc1cccc(Oc2ccccc2)c1 (configuration not stated) | inconclusive: 11.7 µM [inhibitor, partial curve, poor fit]
2 | CC12CCC(C(=O)NCc3ccccc3Cl)(C(Br)C1=O)C2(C)C (configuration not stated) | inconclusive: 18.5 µM [inhibitor, single point]
3 | CC(=O)c1sc(NC(=O)c2cnc(Cl)c(Cl)c2)nc1C | inactive
4 | C/C=C/c1ccc(OCC(=O)Nc2cc(OC)c(OC)c(OC)c2)c(OC)c1 | inconclusive: 2.94 µM [inhibitor, partial curve]
5 | O=C(N/N=C/CCc1ccccc1)C1CCCCC1 | inactive
6 | O=c1c2ccccc2ncn1-c1ccccc1C(F)(F)F | inactive
7 | O=C(/C=C/c1ccc(Br)cc1)N1CCN(c2cccc(C(F)(F)F)c2)CC1 | inconclusive: 16.5 µM [inhibitor, single point]
8 | CCOC(=O)c1c(NC(=O)CS(=O)(=O)c2cn(CC)c3ccccc23)sc2c1CCCC2 | inconclusive: 18.5 µM [inhibitor, single point]
9 | OC(c1ccc2c(c1)OCO2)c1nccc2ccccc12 (configuration not stated) | inconclusive: 2.08 µM [inhibitor, partial curve, poor fit]
10 | CCOC(=O)c1[nH]c2c(c1-c1ccccc1)C(=O)CC(c1ccc(OCC)cc1)C2 (configuration not stated) | active: 10.4 µM
11 | CCCn1c(SCC(=O)c2ccc(OC)c(OC)c2)nc2c1c(=O)n(C)c(=O)n2C | inconclusive: 9.28 µM [inhibitor, partial curve, poor fit]
12 | CC(C)N=C(NC#N)SCc1ccc(Br)cc1 | active: 13.1 µM
13 | COc1ccc2cc(/C(C)=N/NC(=S)Nc3cc(S(=O)(=O)N4CCOCC4)ccc3N3CCOCC3)ccc2c1 | inconclusive: 0.37 µM [inhibitor, full curve, poor fit]
14 | Cc1ccc(NC(=O)CN2C(=O)CCSc3ccc(S(=O)(=O)N4CCCC4)cc32)cc1 | inconclusive: 11.7 µM [inhibitor, partial curve, poor fit]
15 | O=C(O)CCCCc1nc2ccccc2s1 | inconclusive: 10.4 µM [inhibitor, single point]
16 | O=C1CN(C(=O)c2ccc(Cl)c([N+](=O)[O-])c2)c2ccccc2N1 | inconclusive: 18.5 µM [inhibitor, single point]
17 | COc1ccc(N(CC(=O)NC2CCCC2)C(=O)CCC(=O)Nc2cc(C)on2)c(OC)c1 | inconclusive: 5.86 µM [inhibitor, partial curve, poor fit]
18 | COc1cccc(C(=O)C2CCCN(C(=O)c3ccccc3Cl)C2)c1 (configuration not stated) | inconclusive: 18.5 µM [inhibitor, single point]
19 | CN1C(=O)c2cccc(NC(=O)C3CCCCC3)c2C1=O | inconclusive: 0.738 µM [inhibitor, partial curve, poor fit]
20 | CN1C(=O)N(CC(=O)Nc2cccc(S(=O)(=O)N(C)c3ccccc3)c2)C(=O)C12CCCCC2 | inconclusive: 10.4 µM [inhibitor, partial curve, poor fit]
21 | Cc1ccc(-c2nnn(CCC(=O)NC3CCCC3)n2)cc1 | inconclusive: 11.7 µM [inhibitor, single point]

Single entries from the list.
Under Potency, O=c1c2ccccc2ncn1-c1ccccc1C(F)(F)F has inactive
Under Potency, Cc1ccc(NC(=O)CN2C(=O)CCSc3ccc(S(=O)(=O)N4CCCC4)cc32)cc1 has inconclusive: 11.7 µM [inhibitor, partial curve, poor fit]
Under Potency, COc1ccc(N(CC(=O)NC2CCCC2)C(=O)CCC(=O)Nc2cc(C)on2)c(OC)c1 has inconclusive: 5.86 µM [inhibitor, partial curve, poor fit]
Under Potency, CCOC(=O)c1c(NC(=O)CS(=O)(=O)c2cn(CC)c3ccccc23)sc2c1CCCC2 has inconclusive: 18.5 µM [inhibitor, single point]

Later entries

Row | SMILES | Potency
22 | C[C@@H]1C[C@H]2[C@@H]3C[C@H](F)C4=CC(=O)C=C[C@]4(C)[C@@]3(F)[C@@H](O)C[C@]2(C)[C@@]1(O)C(=O)COC(=O)C(C)(C)C | inactive
23 | Cc1ccc(OCC(=O)Nc2ccc(C)c(F)c2)c([N+](=O)[O-])n1 | inactive
24 | O=C(CSc1nnc(C2CC2)n1CC1CCCO1)Nc1cccc(Cl)c1 (configuration not stated) | inactive
25 | O=C(CN1C2CCC1CC(NC(=O)C1CC1)C2)NCc1ccccc1 (configuration not stated) | inconclusive: 9.28 µM [inhibitor, partial curve, poor fit]
26 | CCCn1c(=O)c(C(=O)NCCc2ccc(OC)c(OC)c2)c(O)c2ccccc21 | inactive
27 | CC(C)(C)Nc1nc(-c2ccccn2)nc2ccccc12 | inconclusive: 0.329 µM [inhibitor, full curve, poor fit]
28 | Nc1nc(NCc2ccccc2)nc(NCc2ccccc2)c1[N+](=O)[O-] | inconclusive: 0.329 µM [inhibitor, partial curve, poor fit]
29 | COc1cccc(Nc2ccc([N+](=O)[O-])c3nonc23)c1 | inconclusive: 18.5 µM [inhibitor, single point]
30 | N=C(CC1CC(=O)NC(=O)C1)C1=C(O)CCCC1=O | inactive
31 | NC(=O)CC(NC(=O)c1cccc(Br)c1)c1ccc(NC2CCCCCCCCCCC2)c([N+](=O)[O-])c1 (configuration not stated) | inconclusive: 18.5 µM [inhibitor, single point]
32 | O=C(CNS(=O)(=O)c1ccc(C(=O)N2CCCCC2)cc1)N1CCCCC1 | inconclusive: 18.5 µM [inhibitor, single point]
33 | CCOc1ccc2nc(SCC(=O)Nc3cc4c(cc3C(C)=O)OCO4)[nH]c2c1 | active: 13.1 µM
34 | COCCN(CC(=O)Nc1cc(Cl)ccc1-n1cncn1)Cc1nc2ccccc2c(=O)[nH]1 | inactive
35 | O=C(NC1CCN(C(=O)NCc2ccccc2)CC1)c1ccc(F)cc1 | inconclusive: 10.4 µM [inhibitor, single point]
36 | CSCCC(=O)NC1CC(C)(C)Cc2c1cnn2-c1ccccc1C (configuration not stated) | inconclusive: 18.5 µM [inhibitor, single point]
37 | CC(C)CN1CCN(Cc2cc3ccccc3[nH]2)CC1CCO (configuration not stated) | inconclusive: 16.5 µM [inhibitor, single point]
38 | COc1ccc(OC)c(-c2csc(NC(=O)c3ccccc3F)n2)c1 | inconclusive: 18.5 µM [inhibitor, single point]
39 | Cc1ccc(C2/C(=C(\O)c3cnn(-c4ccccc4)c3C)C(=O)C(=O)N2CCN(C)C)o1 (configuration not stated) | inactive
40 | COc1ccc(C(=O)/C=C/c2ccc(N(C)C)cc2)c(OC)c1 | active: 2.08 µM
41 | COC(=O)CN1C(=O)C2(C(C#N)=C(N)Oc3c2c(C)nn3-c2ccccc2)c2ccccc21 (configuration not stated) | inconclusive: 18.5 µM [inhibitor, single point]
42 | COc1cc(C(=O)NCCCCc2ccccc2)cc(OC)c1OC | inconclusive: 18.5 µM [inhibitor, single point]
